Measured values taken from publication PMC9205782, “Identifying amyloid-related diseases by mapping mutations in low-complexity protein domains to pathologies” (Nature Structural & Molecular Biology, 2022).
No constants are given. Whether binding was seen depends on the method and setting. Some entries that bind do so weakly or less than the wild type.

Amino acid sequences for entries named in this document (tags omitted). A change or cut given only in a name is not applied to a line headed by its entry. Chains listed by the source or under a name are the forms on record and can include a tag or linker.
FUS G191S with N-terminal mCherry (P35637, form named): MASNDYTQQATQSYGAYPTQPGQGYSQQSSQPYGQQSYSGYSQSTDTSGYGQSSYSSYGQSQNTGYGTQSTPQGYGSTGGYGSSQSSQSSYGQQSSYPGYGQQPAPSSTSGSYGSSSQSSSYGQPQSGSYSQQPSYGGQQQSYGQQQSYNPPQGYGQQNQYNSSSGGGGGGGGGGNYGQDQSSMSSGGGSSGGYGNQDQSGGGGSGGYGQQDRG

Tests used:
[1] = biological target: FUS G191S with N-terminal mCherry (human) (UniProt P35637); assay: X-ray fiber powder diffraction of aggregates; aggregated samples centrifuged, exchanged into water, dried between capillaries; cross-beta pattern; both purified
[2] = biological target: FUS G191S with N-terminal mCherry (human) (UniProt P35637); assay: thioflavin T fluorescence on cooling (reversible aggregation, phase separation); same sample concentrations as the aggregation assay; held at 37 °C, cooled to 4 °C for 60 minutes, warmed back to 37 °C; both purified

binding [1]: binds
binding [2]: binds
Substance: FUS G191S with N-terminal mCherry (from UniProt P35637 1-214) (domain or fragment)
